{"source": "the supplement of paper PMC5949888", "note": "Most values lie at the floor of the assay. Slopes are relative: functional sequences can read slightly below zero."}
{"test_system": "Saccharomyces cerevisiae PS128 hsf1 delta, HSF1(1-493) fusion", "test": "growth estimate (transactivation domain function in HSF1 fusion, heat-shock survival) (a.u. (slope of normalised read count over time)); higher = stronger growth at 37°C, i.e. more transactivation activity", "settings": "library: random library", "method": "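Random 60-nt DNA library encoding peptides of up to 20 aa, fused to the C-terminus of yeast HSF1 residues 1-493 (C-terminal TAD deleted) and expressed from the native HSF1 promoter on a CEN plasmid in hsf1-deleted S. cerevisiae PS128. Cells were selected at 37°C on -trp 5-FOA plates for 0, 2, 4, 6 and 8 days and amplicons were sequenced. Growth estimate is the slope of a robust linear fit of total-sum-normalised read counts (normalised to the first time point) over time, using at least 2 replicates. Sequences are classed functional (TAD activity) above a threshold of -0.13, set from stop-codon control sequences.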"}
{"substance": "GDNVHLRSVWLWCHVFGRR", "growth estimate": "< -0.25"}
{"substance": "GDQ", "growth estimate": "< -0.25"}
{"substance": "GDRAEAAM", "growth estimate": "< -0.25"}
{"substance": "GDRARAIQ", "growth estimate": "< -0.25"}
{"substance": "GDRSLQFRMGSSGRWCQSGF", "growth estimate": "< -0.25"}
{"substance": "GDRWSMPEAVLGCDARSLVL", "growth estimate": "< -0.25"}
{"substance": "GDSGNLLHVIVRPPYPGCRV", "growth estimate": "< -0.25"}
{"substance": "GDSIVNLSVLLIS", "growth estimate": "< -0.25"}
{"substance": "GDSRYSRK", "growth estimate": "< -0.25"}
{"substance": "GDSSRPYG", "growth estimate": "< -0.25"}
{"substance": "GDSWAQRYQSAARRFRNNAD", "growth estimate": "< -0.25"}
{"substance": "GDTKKIDSRLWPATVLIRTE", "growth estimate": "< -0.25"}
{"substance": "GDTMRGIRVSRNFSLVLLTI", "growth estimate": "< -0.25"}
{"substance": "GDVL", "growth estimate": "< -0.25"}
{"substance": "GDVRFIRRTRGPPRL", "growth estimate": "< -0.25"}
{"substance": "GDWATFSLTLGVI", "growth estimate": "< -0.25"}
{"substance": "GDWTL", "growth estimate": "< -0.25"}
{"substance": "GDYAIQGRLADRINLALPYR", "growth estimate": "< -0.25"}
{"substance": "GDYFRPWLARSNNRPKKVFN", "growth estimate": "< -0.25"}
{"substance": "GEASLPPRRRPRRSTSGRLG", "growth estimate": "< -0.25"}
{"substance": "GEATELSLSEHV", "growth estimate": "< -0.25"}
{"substance": "GEDSYGAWGPIRGVGGPKDG", "growth estimate": "< -0.25"}
{"substance": "GEEIHTDDGECVLA", "growth estimate": "< -0.25"}
{"substance": "GEEV", "growth estimate": "< -0.25"}
{"substance": "GEF", "growth estimate": "< -0.25"}
{"substance": "GEFSDW", "growth estimate": "< -0.25"}
{"substance": "GEGVPHCQSVSGSGTGFSEI", "growth estimate": "< -0.25"}
{"substance": "GEGVSSMGRRWHHCISR", "growth estimate": "< -0.25"}
{"substance": "GEHCGVMLFLA", "growth estimate": "< -0.25"}
{"substance": "GEHVNKLSMASHVIVVFPVR", "growth estimate": "< -0.25"}
{"substance": "GEKPGGAFFHGPARPTGTRG", "growth estimate": "< -0.25"}
{"substance": "GELKNAQLLY", "growth estimate": "< -0.25"}
{"substance": "GEM", "growth estimate": "< -0.25"}
{"substance": "GEPLCRNAWVGIDW", "growth estimate": "< -0.25"}
{"substance": "GEPLHNFARCF", "growth estimate": -0.199}
{"substance": "GEPLV", "growth estimate": "< -0.25"}
{"substance": "GEQCCLRCYSGAMSVCEHWG", "growth estimate": "< -0.25"}
{"substance": "GEQLDLRSNRGGTGIKY", "growth estimate": "< -0.25"}
{"substance": "GEQTKITGLPNRK", "growth estimate": -0.248}
{"substance": "GEQTLPVFGMCSLAAKSGHR", "growth estimate": -0.0343}
{"substance": "GERGRNGACSALPILAQRYG", "growth estimate": "< -0.25"}
{"substance": "GERVGHFVVKVREESRGSGS", "growth estimate": "< -0.25"}
{"substance": "GESCLRFPRACCQALRITRN", "growth estimate": "< -0.25"}
{"substance": "GESDIGCST", "growth estimate": "< -0.25"}
{"substance": "GESHKVQIYRTTG", "growth estimate": "< -0.25"}
{"substance": "GESPEMS", "growth estimate": "< -0.25"}
{"substance": "GESQRPLTATSYSMGDARLP", "growth estimate": "< -0.25"}
{"substance": "GESQVVQF", "growth estimate": "< -0.25"}
{"substance": "GESRGWI", "growth estimate": "< -0.25"}
{"substance": "GESYVLHMIRGFLRMLYHHR", "growth estimate": "< -0.25"}
{"substance": "GEVMRYCHLPRRRDPAVIAR", "growth estimate": "< -0.25"}
{"substance": "GEVQHHFRDNLKVLN", "growth estimate": "< -0.25"}
{"substance": "GEVRT", "growth estimate": "< -0.25"}
{"substance": "GEYIVAIRQIFPVGRVTMSR", "growth estimate": "< -0.25"}
{"substance": "GEYSVSETASGDPGADIKKS", "growth estimate": "< -0.25"}
{"substance": "GEYSWTSSVDYSSCSPIR", "growth estimate": "< -0.25"}
{"substance": "GFAV", "growth estimate": "< -0.25"}
{"substance": "GFFGMSLPGCCGEQSGIAEH", "growth estimate": "< -0.25"}
{"substance": "GFGRLIAHCSRWLLR", "growth estimate": "< -0.25"}
{"substance": "GFHTQHLPSALYWDVDRV", "growth estimate": "< -0.25"}
{"substance": "GFK", "growth estimate": "< -0.25"}
{"substance": "GFLALRSSSMQICPRL", "growth estimate": -0.246}
{"substance": "GFLEEVISKNSSAVIPWALL", "growth estimate": -0.207}
{"substance": "GFLGYRYAWAFALACRLTTP", "growth estimate": "< -0.25"}
{"substance": "GFLTRMEIAVSGWSDGAGAA", "growth estimate": "< -0.25"}
{"substance": "GFNDG", "growth estimate": "< -0.25"}
{"substance": "GFNTMQGRSLIESDRGNMAD", "growth estimate": "< -0.25"}
{"substance": "GFPES", "growth estimate": "< -0.25"}
{"substance": "GFRG", "growth estimate": "< -0.25"}
{"substance": "GFRQGQRTSH", "growth estimate": "< -0.25"}
{"substance": "GFRRNSLGSSPRVI", "growth estimate": "< -0.25"}
{"substance": "GFRYGGRYRDSSKTCYVGQH", "growth estimate": "< -0.25"}
{"substance": "GFSKVASLLRCSFRPLGAQP", "growth estimate": "< -0.25"}
{"substance": "GFSPPEQTVRRPPCRLSLGD", "growth estimate": "< -0.25"}
{"substance": "GFSPTLRPVNPRRNKYVVRS", "growth estimate": "< -0.25"}
{"substance": "GFTGRAHPQVWS", "growth estimate": "< -0.25"}
{"substance": "GFTMITIHRIYRWMSCPHLP", "growth estimate": "< -0.25"}
{"substance": "GFVAQVDGNTCAL", "growth estimate": "< -0.25"}
{"substance": "GFVHTKGGVALSVLPGS", "growth estimate": "< -0.25"}
{"substance": "GFVWEHVGRALHGCQ", "growth estimate": "< -0.25"}
{"substance": "GFWESRITRARARGR", "growth estimate": "< -0.25"}
{"substance": "GFYTISCGCTPCRGFKIHPA", "growth estimate": "< -0.25"}
{"substance": "GGAEWDAWYCELVMTVYVLR", "growth estimate": "< -0.25"}
{"substance": "GGAGLRPPIPPWKTRSTH", "growth estimate": "< -0.25"}
{"substance": "GGASRLKREEHAPRRRARLN", "growth estimate": "< -0.25"}
{"substance": "GGDFGKDCDGVNLAIENRVY", "growth estimate": -0.246}
{"substance": "GGDGRRHILRGVGIVHLVIH", "growth estimate": "< -0.25"}
{"substance": "GGDKTTGSRVTAVVYARSHG", "growth estimate": "< -0.25"}
{"substance": "GGDVGFSTRKHKAKRLVGRA", "growth estimate": "< -0.25"}
{"substance": "GGEDDIICKGLWPIVGGPKE", "growth estimate": "< -0.25"}
{"substance": "GGEPRISSEQQATPRPRVYG", "growth estimate": "< -0.25"}
{"substance": "GGERGRRGTFVIAAESTCHT", "growth estimate": "< -0.25"}
{"substance": "GGERSMRHNVTAIYECALLT", "growth estimate": "< -0.25"}
